Reference: the supplement of paper PMC6411743
± gives the standard deviation of the averaged measurements. Some of the results follow.

Chains of the proteins cited; added tags and fusions are not shown. Lines headed by an entry give the natural chain unless they say otherwise; changes in a name come on top.
UniProt P51617, whole entry, looked up: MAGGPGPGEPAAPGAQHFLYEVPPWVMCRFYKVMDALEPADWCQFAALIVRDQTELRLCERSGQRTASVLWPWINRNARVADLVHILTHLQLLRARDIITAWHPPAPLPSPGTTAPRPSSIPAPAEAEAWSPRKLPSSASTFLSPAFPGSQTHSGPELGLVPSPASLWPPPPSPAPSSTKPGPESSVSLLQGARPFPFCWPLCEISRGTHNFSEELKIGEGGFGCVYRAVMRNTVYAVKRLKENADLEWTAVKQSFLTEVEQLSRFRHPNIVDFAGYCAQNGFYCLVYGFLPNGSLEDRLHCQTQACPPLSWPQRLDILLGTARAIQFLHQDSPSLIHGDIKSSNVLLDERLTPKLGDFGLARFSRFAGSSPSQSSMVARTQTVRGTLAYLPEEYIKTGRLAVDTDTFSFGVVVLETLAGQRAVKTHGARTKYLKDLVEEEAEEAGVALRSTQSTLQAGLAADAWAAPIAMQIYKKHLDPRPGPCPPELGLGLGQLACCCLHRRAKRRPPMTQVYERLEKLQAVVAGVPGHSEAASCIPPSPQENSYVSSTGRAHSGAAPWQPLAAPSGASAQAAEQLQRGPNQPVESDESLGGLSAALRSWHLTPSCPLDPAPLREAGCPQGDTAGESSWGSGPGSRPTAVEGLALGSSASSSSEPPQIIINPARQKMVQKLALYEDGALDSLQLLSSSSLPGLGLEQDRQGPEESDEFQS
UniProt P61619, whole entry: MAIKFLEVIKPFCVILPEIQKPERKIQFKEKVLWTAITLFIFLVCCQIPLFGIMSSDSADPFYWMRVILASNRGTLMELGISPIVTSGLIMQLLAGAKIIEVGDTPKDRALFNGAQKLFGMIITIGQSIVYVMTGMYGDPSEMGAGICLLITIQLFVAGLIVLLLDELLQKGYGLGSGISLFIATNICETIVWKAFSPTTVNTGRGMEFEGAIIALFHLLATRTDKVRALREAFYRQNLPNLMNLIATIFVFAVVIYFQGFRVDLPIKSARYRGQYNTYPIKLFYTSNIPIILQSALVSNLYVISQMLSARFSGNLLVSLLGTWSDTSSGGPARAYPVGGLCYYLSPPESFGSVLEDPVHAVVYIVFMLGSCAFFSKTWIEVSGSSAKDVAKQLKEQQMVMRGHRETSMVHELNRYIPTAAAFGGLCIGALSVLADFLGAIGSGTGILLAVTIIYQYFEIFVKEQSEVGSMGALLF
UniProt Q5T8D3: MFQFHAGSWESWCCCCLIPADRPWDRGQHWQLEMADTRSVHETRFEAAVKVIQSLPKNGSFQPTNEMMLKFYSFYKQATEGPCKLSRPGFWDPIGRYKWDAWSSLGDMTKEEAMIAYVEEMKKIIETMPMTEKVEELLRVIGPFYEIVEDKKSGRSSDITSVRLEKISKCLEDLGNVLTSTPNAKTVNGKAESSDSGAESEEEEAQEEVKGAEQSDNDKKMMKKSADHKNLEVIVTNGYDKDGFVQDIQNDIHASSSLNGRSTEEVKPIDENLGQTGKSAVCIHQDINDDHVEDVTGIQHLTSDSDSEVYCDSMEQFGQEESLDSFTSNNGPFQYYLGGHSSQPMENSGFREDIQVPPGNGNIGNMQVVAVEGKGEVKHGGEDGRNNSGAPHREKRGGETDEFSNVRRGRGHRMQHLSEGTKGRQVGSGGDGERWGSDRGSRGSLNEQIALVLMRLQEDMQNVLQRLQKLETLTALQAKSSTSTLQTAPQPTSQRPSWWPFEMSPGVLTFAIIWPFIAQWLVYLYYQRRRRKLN
UniProt Q9H098: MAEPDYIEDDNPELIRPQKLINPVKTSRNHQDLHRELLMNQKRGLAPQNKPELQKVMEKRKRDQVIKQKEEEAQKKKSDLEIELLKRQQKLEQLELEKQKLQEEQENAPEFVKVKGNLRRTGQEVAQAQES
UniProt Q9UL63, whole entry: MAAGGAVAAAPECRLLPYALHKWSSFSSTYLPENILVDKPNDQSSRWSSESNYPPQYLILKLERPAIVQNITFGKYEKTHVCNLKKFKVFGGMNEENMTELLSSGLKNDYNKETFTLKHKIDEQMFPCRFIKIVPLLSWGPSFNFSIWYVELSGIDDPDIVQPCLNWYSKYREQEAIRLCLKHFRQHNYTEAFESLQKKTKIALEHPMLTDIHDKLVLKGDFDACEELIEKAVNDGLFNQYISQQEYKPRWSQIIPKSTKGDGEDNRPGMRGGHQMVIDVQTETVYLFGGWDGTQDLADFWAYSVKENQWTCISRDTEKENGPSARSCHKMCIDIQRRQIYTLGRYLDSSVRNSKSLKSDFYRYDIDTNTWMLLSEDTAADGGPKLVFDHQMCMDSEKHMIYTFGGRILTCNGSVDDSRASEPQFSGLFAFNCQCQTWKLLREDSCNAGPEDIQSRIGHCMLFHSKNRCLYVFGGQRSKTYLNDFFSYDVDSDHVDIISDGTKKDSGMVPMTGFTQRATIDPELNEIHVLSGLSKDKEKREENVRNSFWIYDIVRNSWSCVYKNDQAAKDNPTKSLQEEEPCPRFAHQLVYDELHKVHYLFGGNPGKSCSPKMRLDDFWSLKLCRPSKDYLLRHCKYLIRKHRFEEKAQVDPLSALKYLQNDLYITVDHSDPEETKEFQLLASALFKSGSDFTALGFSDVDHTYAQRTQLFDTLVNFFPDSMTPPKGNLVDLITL
UniProt A8MWD9, whole entry, looked up: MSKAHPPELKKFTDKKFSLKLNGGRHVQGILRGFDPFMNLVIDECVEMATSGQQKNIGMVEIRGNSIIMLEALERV
UniProt P62308, whole entry, looked up: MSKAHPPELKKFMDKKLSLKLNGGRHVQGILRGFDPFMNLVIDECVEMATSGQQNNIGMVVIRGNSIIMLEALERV
UniProt P78330: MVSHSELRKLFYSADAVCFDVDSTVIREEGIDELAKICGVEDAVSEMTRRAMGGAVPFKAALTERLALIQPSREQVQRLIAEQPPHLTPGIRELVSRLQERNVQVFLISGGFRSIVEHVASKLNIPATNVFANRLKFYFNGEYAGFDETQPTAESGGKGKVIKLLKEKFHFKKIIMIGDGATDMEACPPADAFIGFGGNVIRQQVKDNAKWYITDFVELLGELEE
UniProt Q8WVV9: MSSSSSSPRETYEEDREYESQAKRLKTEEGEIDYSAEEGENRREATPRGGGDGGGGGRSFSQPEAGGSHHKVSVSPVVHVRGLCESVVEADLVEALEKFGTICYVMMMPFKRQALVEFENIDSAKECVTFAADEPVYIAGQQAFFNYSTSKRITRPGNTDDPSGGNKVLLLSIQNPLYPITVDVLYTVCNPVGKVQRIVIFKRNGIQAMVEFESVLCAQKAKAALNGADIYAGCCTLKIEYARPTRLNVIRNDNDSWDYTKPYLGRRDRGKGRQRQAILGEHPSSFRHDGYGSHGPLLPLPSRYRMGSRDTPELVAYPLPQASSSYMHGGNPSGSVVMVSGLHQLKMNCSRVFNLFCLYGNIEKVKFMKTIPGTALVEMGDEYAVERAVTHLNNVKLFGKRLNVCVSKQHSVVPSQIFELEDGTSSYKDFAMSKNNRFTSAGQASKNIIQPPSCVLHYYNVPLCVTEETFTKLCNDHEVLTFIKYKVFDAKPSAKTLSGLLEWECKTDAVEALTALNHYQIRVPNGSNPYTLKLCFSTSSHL
UniProt O94925: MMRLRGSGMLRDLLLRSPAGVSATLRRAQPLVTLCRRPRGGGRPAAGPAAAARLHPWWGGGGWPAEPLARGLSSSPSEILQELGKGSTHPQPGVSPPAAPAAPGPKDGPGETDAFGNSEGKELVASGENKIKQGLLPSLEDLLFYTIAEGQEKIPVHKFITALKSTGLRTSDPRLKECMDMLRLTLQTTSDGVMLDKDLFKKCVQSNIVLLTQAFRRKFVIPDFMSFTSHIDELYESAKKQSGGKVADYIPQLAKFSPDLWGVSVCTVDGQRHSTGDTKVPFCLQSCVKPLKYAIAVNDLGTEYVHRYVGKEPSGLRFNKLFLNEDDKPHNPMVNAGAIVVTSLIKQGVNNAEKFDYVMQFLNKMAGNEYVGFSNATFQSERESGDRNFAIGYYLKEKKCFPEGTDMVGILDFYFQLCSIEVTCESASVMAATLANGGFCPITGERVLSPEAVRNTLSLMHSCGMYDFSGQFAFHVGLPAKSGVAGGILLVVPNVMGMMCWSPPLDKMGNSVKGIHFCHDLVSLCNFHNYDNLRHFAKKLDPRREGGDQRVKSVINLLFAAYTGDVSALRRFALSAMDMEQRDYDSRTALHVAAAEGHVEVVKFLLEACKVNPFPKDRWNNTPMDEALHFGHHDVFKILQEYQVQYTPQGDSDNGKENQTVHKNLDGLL
UniProt Q9UNL2: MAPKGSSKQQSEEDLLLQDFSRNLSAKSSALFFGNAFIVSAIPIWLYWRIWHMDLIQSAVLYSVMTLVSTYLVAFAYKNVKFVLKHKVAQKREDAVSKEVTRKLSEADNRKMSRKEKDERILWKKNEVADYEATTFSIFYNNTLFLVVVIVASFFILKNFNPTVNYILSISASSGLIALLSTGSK
UniProt P49585: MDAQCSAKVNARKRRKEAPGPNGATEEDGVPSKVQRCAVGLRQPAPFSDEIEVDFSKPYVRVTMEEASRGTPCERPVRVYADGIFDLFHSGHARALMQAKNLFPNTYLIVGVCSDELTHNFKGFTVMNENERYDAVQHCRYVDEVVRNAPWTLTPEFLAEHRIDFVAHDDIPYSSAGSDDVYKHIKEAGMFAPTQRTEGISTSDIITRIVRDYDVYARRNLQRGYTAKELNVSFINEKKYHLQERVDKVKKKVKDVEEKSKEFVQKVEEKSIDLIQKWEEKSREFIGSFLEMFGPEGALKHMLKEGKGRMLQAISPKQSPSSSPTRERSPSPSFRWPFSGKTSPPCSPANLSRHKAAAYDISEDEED
UniProt Q15019: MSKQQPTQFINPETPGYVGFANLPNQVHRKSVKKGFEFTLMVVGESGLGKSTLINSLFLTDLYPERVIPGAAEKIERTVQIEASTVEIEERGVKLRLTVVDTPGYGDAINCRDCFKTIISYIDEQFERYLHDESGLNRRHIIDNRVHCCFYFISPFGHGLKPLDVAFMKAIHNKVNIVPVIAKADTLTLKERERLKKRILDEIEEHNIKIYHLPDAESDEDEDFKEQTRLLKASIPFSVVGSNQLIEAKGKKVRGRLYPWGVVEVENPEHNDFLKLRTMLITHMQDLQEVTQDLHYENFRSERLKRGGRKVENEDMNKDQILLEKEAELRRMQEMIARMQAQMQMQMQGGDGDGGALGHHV
UniProt Q9NRN9: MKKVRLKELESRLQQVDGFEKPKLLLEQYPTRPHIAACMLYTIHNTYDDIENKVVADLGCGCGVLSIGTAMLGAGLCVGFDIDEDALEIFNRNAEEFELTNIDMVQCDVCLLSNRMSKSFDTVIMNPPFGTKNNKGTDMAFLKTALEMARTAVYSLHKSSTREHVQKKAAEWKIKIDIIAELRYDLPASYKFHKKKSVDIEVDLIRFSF
UniProt Q8IYB3: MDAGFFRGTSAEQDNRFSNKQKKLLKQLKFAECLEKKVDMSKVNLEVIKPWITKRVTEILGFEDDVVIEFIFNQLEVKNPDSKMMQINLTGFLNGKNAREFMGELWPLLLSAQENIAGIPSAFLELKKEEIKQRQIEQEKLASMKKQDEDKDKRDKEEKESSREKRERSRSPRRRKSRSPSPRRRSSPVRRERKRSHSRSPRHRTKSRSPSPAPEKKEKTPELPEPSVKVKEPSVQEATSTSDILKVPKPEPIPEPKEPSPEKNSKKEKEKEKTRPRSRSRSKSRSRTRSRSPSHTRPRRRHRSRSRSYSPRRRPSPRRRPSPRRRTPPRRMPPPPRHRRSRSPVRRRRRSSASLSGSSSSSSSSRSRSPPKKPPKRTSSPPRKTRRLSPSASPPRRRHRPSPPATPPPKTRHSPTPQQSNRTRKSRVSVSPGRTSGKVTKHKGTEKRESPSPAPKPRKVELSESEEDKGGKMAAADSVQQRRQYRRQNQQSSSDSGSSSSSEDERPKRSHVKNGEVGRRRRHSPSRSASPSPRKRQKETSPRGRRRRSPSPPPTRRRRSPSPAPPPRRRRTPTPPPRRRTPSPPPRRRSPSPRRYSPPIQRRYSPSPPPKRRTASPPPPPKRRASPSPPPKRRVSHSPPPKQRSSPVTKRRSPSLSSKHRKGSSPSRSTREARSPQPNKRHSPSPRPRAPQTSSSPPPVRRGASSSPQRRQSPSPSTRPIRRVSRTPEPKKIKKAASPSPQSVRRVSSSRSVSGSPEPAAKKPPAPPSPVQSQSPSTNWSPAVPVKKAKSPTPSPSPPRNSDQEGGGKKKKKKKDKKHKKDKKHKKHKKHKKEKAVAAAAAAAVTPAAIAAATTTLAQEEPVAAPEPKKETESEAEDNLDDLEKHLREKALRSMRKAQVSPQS
UniProt Q16563: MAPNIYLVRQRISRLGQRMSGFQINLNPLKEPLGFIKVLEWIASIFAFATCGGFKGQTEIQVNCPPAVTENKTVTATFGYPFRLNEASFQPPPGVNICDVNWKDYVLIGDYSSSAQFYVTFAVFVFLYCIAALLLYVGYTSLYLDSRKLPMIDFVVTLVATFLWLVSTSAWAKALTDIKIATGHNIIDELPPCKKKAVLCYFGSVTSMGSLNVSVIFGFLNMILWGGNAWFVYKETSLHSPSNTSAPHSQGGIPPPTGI

Compound: Nc1nc2c(ncn2[C@@H]2O[C@H](COP(=O)(O)OP(=O)(O)OP(=O)(O)O)[C@@H](O)[C@H]2O)c(=O)[nH]1 [guanosine triphosphate]
Experiment: NP40-soluble protein abundance relative to vehicle (solubility fold change) (ratio); higher = more soluble protein in presence of GTP
Summary of the method: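 In three independent experiments, Jurkat crude lysate made by Dounce homogenisation was treated for 10 min at room temperature and then 3 min at 37 °C with eight concentrations ranging from 0.1 to 10 mM. It was then solubilised with 0.8% NP40 plus benzonase for 60 min at 4 °C and ultracentrifuged. The supernatant was TMT-labelled for LC-MS/MS, and each value is the fold change against the detergent-processed vehicle for the same replicate, using vsn-normalised intensities.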

Target	NP40-soluble protein abundance (concentration: 0.1mM)	NP40-soluble protein abundance (concentration: 0.5mM)	NP40-soluble protein abundance (concentration: 1mM)	NP40-soluble protein abundance (concentration: 2mM)	NP40-soluble protein abundance (concentration: 4mM)	NP40-soluble protein abundance (concentration: 6mM)	NP40-soluble protein abundance (concentration: 8mM)	NP40-soluble protein abundance (concentration: 10mM)
B4DVL2 and related entries (UniProt Q02083)	1.04 ± 0.054	0.959 ± 0.056	1.03 ± 0.076	1 ± 0.057	1.04 ± 0.091	0.924 ± 0.051	0.937 ± 0.12	0.959 ± 0.039
D3YTB5 and related entries (UniProt P51617)	1.09 ± 0.052	1.09 ± 0.077	1.22 ± 0.07	1.08 ± 0.083	1.12 ± 0.1	1.17 ± 0.12	1.21 ± 0.032	1.17 ± 0.038
A8MT40 and related entries (UniProt Q8NCN5)	1.03 ± 0.061	1.08 ± 0.075	0.931 ± 0.023	0.975 ± 0.12	0.901 ± 0.058	0.915 ± 0.082	0.848 ± 0.04	0.891 ± 0.067
B4DR61 and related entries (UniProt P61619)	1.12 ± 0.1	1.07 ± 0.088	0.974 ± 0.02	1.01 ± 0.13	1.01 ± 0.12	1.02 ± 0.066	0.97 ± 0.023	0.957 ± 0.1
B0QY89 and related entries (UniProt Q9Y262)	1.08 ± 0.062	1.09 ± 0.09	1.06 ± 0.1	1.17 ± 0.19	1.33 ± 0.28	1.47 ± 0.34	1.57 ± 0.29	1.75 ± 0.35
B7Z2R7 and related entries (UniProt Q5T8D3)	0.939 ± 0.099	1.01 ± 0.1	0.992 ± 0.066	0.979 ± 0.098	0.994 ± 0.07	0.98 ± 0.068	0.999 ± 0.064	0.998 ± 0.07
D3YTB1 and related entries (UniProt P62910)	1 ± 0.12	0.991 ± 0.075	1.11 ± 0.16	1.05 ± 0.18	0.949 ± 0.3	0.88 ± 0.2	0.633 ± 0.19	0.915 ± 0.25
C9J6N5 and related entries (UniProt Q9H098)	1.02 ± 0.079	1.05 ± 0.046	1.11 ± 0.15	0.994 ± 0.073	1.02 ± 0.058	0.982 ± 0.087	1.11 ± 0.14	1.11 ± 0.14
C9J7E8 and related entries (UniProt Q9UL63)	0.987 ± 0.071	1.1 ± 0.084	1.04 ± 0.093	1.09 ± 0.14	1.12 ± 0.17	1.07 ± 0.19	1.15 ± 0.14	1.09 ± 0.13
A8MWD9 and related entries (UniProt P62308+A8MWD9)	0.961 ± 0.1	1.02 ± 0.057	1.14 ± 0.086	1.19 ± 0.045	1.24 ± 0.078	1.28 ± 0.053	1.33 ± 0.084	1.44 ± 0.16
C9JBI3 and related entries (UniProt P78330)	1 ± 0.019	0.962 ± 0.012	0.958 ± 0.033	0.966 ± 0.047	0.928 ± 0.037	0.922 ± 0.019	0.896 ± 0.06	0.897 ± 0.027
C9IYN3 and related entries (UniProt Q8WVV9+B7WPG3+D6W592+C9IYN3)	1.07 ± 0.066	1.1 ± 0.087	0.979 ± 0.064	1 ± 0.1	1.01 ± 0.094	0.976 ± 0.1	0.958 ± 0.063	0.913 ± 0.12
A6NJD9 and related entries (UniProt Q16540)	1.06 ± 0.1	1.11 ± 0.23	1.28 ± 0.22	1.29 ± 0.31	1.36 ± 0.41	1.14 ± 0.35	1.19 ± 0.32	1.2 ± 0.37
A8CTZ0 and related entries (UniProt Q15811)	1.03 ± 0.094	0.978 ± 0.076	0.984 ± 0.1	0.942 ± 0.092	0.898 ± 0.054	0.952 ± 0.1	0.908 ± 0.099	0.901 ± 0.066
B8ZZA8 and related entries (UniProt O94925)	1.03 ± 0.025	1.02 ± 0.02	0.942 ± 0.021	0.953 ± 0.027	0.946 ± 0.028	0.917 ± 0.024	0.891 ± 0.039	0.896 ± 0.046
C9JNW5 and related entries (UniProt P83731)	0.854 ± 0.011	0.859 ± 0.0099	0.912 ± 0.046	0.871 ± 0.11	0.817 ± 0.15	0.781 ± 0.14	0.597 ± 0.077	0.837 ± 0.15
C9JA28 and related entries (UniProt Q9UNL2)	0.978 ± 0.085	0.971 ± 0.086	0.909 ± 0.073	0.853 ± 0.13	0.81 ± 0.12	0.841 ± 0.14	0.855 ± 0.056	0.829 ± 0.11
C9J050 and related entries (UniProt P49585)	1.01 ± 0.094	0.986 ± 0.078	0.953 ± 0.074	0.945 ± 0.077	0.992 ± 0.073	0.942 ± 0.058	0.942 ± 0.079	0.936 ± 0.054
B5MCX3 and related entries (UniProt Q15019)	1.03 ± 0.034	1 ± 0.036	0.98 ± 0.025	0.935 ± 0.035	0.96 ± 0.028	0.925 ± 0.024	0.932 ± 0.03	0.8839 ± 0.0077
B4DJL6 and related entries (UniProt Q96SY0)	1.03 ± 0.049	1.03 ± 0.035	1.03 ± 0.064	1.07 ± 0.051	1.03 ± 0.058	1.09 ± 0.025	1.07 ± 0.086	1.05 ± 0.066
B8ZZC8 and related entries (UniProt Q9NRN9)	1.09 ± 0.1	1.06 ± 0.12	0.931 ± 0.013	0.975 ± 0.042	0.944 ± 0.052	0.947 ± 0.032	0.87 ± 0.064	0.865 ± 0.14
A9Z1X7 and related entries (UniProt Q8IYB3)	1.01 ± 0.03	1.16 ± 0.043	1.35 ± 0.061	1.27 ± 0.13	1.14 ± 0.24	1.17 ± 0.23	1.17 ± 0.25	1.22 ± 0.36
C9JM75 and related entries (UniProt Q6P087)	1.09 ± 0.063	1.14 ± 0.025	1.09 ± 0.076	1.19 ± 0.089	1.24 ± 0.061	1.23 ± 0.13	1.22 ± 0.036	1.23 ± 0.041
B5MCF9 and related entries (UniProt O00541)	1.05 ± 0.073	1.06 ± 0.093	1 ± 0.041	0.996 ± 0.041	0.992 ± 0.046	0.966 ± 0.071	0.961 ± 0.047	0.937 ± 0.015
D6REA0 and related entries (UniProt O75879)	0.993 ± 0.031	0.984 ± 0.035	0.939 ± 0.032	0.947 ± 0.043	0.915 ± 0.042	0.908 ± 0.027	0.928 ± 0.023	0.912 ± 0.043
C9JYN0 and related entries (UniProt Q16563)	0.958 ± 0.069	0.931 ± 0.084	0.919 ± 0.028	0.925 ± 0.079	0.929 ± 0.045	0.905 ± 0.062	0.836 ± 0.083	0.895 ± 0.073

Eight entries from above, as comma-separated lines.
Target,NP40-soluble protein abundance (concentration: 0.1mM),NP40-soluble protein abundance (concentration: 0.5mM),NP40-soluble protein abundance (concentration: 1mM),NP40-soluble protein abundance (concentration: 2mM),NP40-soluble protein abundance (concentration: 4mM),NP40-soluble protein abundance (concentration: 6mM),NP40-soluble protein abundance (concentration: 8mM),NP40-soluble protein abundance (concentration: 10mM)
A8CTZ0 and related entries (UniProt Q15811),1.03 ± 0.094,0.978 ± 0.076,0.984 ± 0.1,0.942 ± 0.092,0.898 ± 0.054,0.952 ± 0.1,0.908 ± 0.099,0.901 ± 0.066
B8ZZA8 and related entries (UniProt O94925),1.03 ± 0.025,1.02 ± 0.02,0.942 ± 0.021,0.953 ± 0.027,0.946 ± 0.028,0.917 ± 0.024,0.891 ± 0.039,0.896 ± 0.046
C9JNW5 and related entries (UniProt P83731),0.854 ± 0.011,0.859 ± 0.0099,0.912 ± 0.046,0.871 ± 0.11,0.817 ± 0.15,0.781 ± 0.14,0.597 ± 0.077,0.837 ± 0.15
C9JA28 and related entries (UniProt Q9UNL2),0.978 ± 0.085,0.971 ± 0.086,0.909 ± 0.073,0.853 ± 0.13,0.81 ± 0.12,0.841 ± 0.14,0.855 ± 0.056,0.829 ± 0.11
C9J050 and related entries (UniProt P49585),1.01 ± 0.094,0.986 ± 0.078,0.953 ± 0.074,0.945 ± 0.077,0.992 ± 0.073,0.942 ± 0.058,0.942 ± 0.079,0.936 ± 0.054
B5MCX3 and related entries (UniProt Q15019),1.03 ± 0.034,1 ± 0.036,0.98 ± 0.025,0.935 ± 0.035,0.96 ± 0.028,0.925 ± 0.024,0.932 ± 0.03,0.8839 ± 0.0077
B4DJL6 and related entries (UniProt Q96SY0),1.03 ± 0.049,1.03 ± 0.035,1.03 ± 0.064,1.07 ± 0.051,1.03 ± 0.058,1.09 ± 0.025,1.07 ± 0.086,1.05 ± 0.066
B8ZZC8 and related entries (UniProt Q9NRN9),1.09 ± 0.1,1.06 ± 0.12,0.931 ± 0.013,0.975 ± 0.042,0.944 ± 0.052,0.947 ± 0.032,0.87 ± 0.064,0.865 ± 0.14
